## Library screen at single concentrations

Amino acid sequences for entries named in this document (tags omitted). Residues count along the entry.
UniProt P9WPC5, whole entry: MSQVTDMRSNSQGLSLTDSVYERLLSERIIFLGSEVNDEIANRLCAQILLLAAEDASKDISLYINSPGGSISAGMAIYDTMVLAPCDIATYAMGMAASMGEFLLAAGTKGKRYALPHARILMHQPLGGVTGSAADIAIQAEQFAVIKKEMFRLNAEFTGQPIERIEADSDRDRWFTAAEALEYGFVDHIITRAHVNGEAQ
UniProt P9WPC3, whole entry partner: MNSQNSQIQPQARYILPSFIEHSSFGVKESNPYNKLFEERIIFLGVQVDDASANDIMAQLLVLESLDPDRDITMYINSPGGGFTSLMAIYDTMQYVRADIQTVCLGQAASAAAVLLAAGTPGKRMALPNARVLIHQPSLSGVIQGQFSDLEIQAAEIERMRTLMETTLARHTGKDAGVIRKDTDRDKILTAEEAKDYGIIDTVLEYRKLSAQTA
UniProt Q8IDJ8, 1-583: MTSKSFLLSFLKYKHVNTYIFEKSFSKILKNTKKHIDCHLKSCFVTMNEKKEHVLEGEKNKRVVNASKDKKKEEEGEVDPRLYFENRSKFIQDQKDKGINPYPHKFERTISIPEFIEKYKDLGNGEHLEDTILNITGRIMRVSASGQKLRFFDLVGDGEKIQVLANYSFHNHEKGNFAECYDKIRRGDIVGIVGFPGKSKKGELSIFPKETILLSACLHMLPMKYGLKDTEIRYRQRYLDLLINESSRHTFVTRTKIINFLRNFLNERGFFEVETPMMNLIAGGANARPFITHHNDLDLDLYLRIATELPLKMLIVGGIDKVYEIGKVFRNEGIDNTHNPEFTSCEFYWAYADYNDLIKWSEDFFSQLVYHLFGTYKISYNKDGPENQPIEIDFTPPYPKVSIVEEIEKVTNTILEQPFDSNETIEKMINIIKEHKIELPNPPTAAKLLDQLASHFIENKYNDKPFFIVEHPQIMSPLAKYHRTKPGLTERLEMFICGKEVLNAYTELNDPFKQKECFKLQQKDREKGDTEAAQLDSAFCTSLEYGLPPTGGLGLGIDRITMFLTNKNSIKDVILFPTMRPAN

Leishmania in macrophages: 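Cell assay of Leishmania donovani living inside macrophages; the read-out is not stated. Tested at 30 µM. Higher reads as stronger inhibition (inferred: compounds with an IC50 in retests scored well above the rest). Of about 69,000 compounds tested this way, about 1,000 (1.5%) reached 50% or more in at least one test.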
ClpP1P2: 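Protease assay of ClpP1P2, read by the AMC dye that it sets free. Target: ClpP1P2, Mycobacterium tuberculosis (UniProt P9WPC5 and UniProt P9WPC3). Compounds at 50 µM. Higher reads as stronger inhibition, judged from the few compounds that gave an IC50. Most other retested compounds had strongly negative values. Of about 69,000 compounds tested this way, about 10 (0.015%) reached 50% or more in at least one test.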
Toxoplasma: 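Assay of Toxoplasma gondii numbers, read through their beta-galactosidase reporter with a colour substrate. Tested at 10 µM. Higher reads as fewer parasites (inferred from which compounds were picked for retests). Size under these conditions: about 67,000 compounds, about 260 of them at 50% or above in at least one test.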
PfKRS1: 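Enzyme assay of the cytosolic lysyl-tRNA synthetase in 384-well plates, read by luminescence. Target: Lysine-tRNA ligase, Plasmodium falciparum 3D7 (UniProt Q8IDJ8). Compounds at 30 µM. Higher reads as stronger inhibition, judged from the few compounds that gave an IC50. About 69,000 compounds were tested under these conditions; 0.071% (about 49) showed 50% or more at least once.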

Each number is a percent effect as filed. The controls that fix the scale are not given in the record; negative values are as filed. The compounds are a random part of those screened. Two or more numbers in one place are separate tests of the same structure; such repeats can differ widely. A dash means the value is not listed here; it may have been measured.

| # | compound | Leishmania in macrophages | ClpP1P2 | Toxoplasma | PfKRS1 |
|---|---|---|---|---|---|
| 1 | `Cc1cc(Nc2ccc3c(c2)CC(=O)N3)nc(C(C)C)n1` | 35.73 | -8.46 | -7.77 | 7.712 |
| 2 | `CC(=O)N1CCNCC1c1cccc(C(=O)N(C)C)c1` (centres undefined) | 3.746 | -7.965 | 3.395 | 4.363 |
| 3 | `Cc1cccc(CN2CCOCC3(CCN(C4CCOCC4)C3)C2)n1` (centres undefined) | - | 2.816 | - | 9.201 |
| 4 | `Cn1cnc2c1CCN(c1ccnc(-c3ccccc3)n1)C2` | -28.24 | -5.749 | 3.459 | 5.699 |
| 5 | `O=C(Cc1ccc(F)cc1Cl)N[C@@H]1CCNC[C@H]1O` | 19.05 | 5.081 | 13.3 | 0.466 |
| 6 | `O=C(c1c(F)cccc1Br)N1CCCOCC1` | -25.7 | 10.4 | -17.6 | -0.5333 |
| 7 | `COC(=O)N1CCC(NC(=O)c2cc(S(N)(=O)=O)ccc2C)CC1` | 3.141 | 8.275 | 4.415 | 1.88 |
| 8 | `CC(C)(CNc1ccc2ccc(F)cc2n1)NS(C)(=O)=O` | 2.169 | 2.083 | 1.658 | 3.06 |
| 9 | `CCc1ccc2nc(C)cc(C(=O)N[C@@H]3CNC[C@H]3O)c2c1` | -6.297 | 20.98 | 0.02614 | -3.026 |
| 10 | `Cc1nnn2c1COCC(CNC(=O)c1ccc3[nH]ccc3c1)C2` (centres undefined) | -2.934 | 10.93 | 0.5753 | 4.312 |
| 11 | `O=C(c1cnccn1)N1CC(S(=O)(=O)c2ccc(Cl)cc2)C1` | 11.47 | -9.55 | 7.365 | -4.731 |
| 12 | `Cc1ccc(CNC(=O)Nc2nncs2)n1C` | 28.53 | 3.898 | -7.476 | 0.4555 |
| 13 | `CCNC(=O)CN1CCCC(c2ccc(C(=O)O)cc2)C1` (centres undefined) | -2.139 | -2.808 | 4.205 | 0.5505 |
| 14 | `O=C(c1ccco1)N1CCc2ncc(CN3CCOCC3)n2CC1` | 39.25 | 14.45 | -13.2 | 0.8285 |
| 15 | `Cc1nnc(SCC(=O)N2CCC3(CC2)c2ccccc2CC3O)o1` (centres undefined) | -4.963 | -4.934 | 6.058 | -0.1532 |
| 16 | `O=C1CCC(c2nc(C3CCNCC3)no2)N1` (centres undefined) | 3.963 | -11.88 | 0.849 | 0.04728 |
| 17 | `CC(C)c1nc(C2CCCNC2)no1.Cl` (centres undefined) | 4.453 | - | 9.702 | - |
| 18 | `CSCCC(O)C(=O)N1CCCN(Cc2cccnc2)CC1` (centres undefined) | -2.385 | -3.425 | 1.042 | 15.26 |
| 19 | `CN(C)C(=O)C1CN(Cc2ccsc2)Cc2ccnn2C1.O=C(O)C(F)(F)F` (centres undefined) | 5.72 and -37.09 | - | 11.53 | - |
| 20 | `Cc1cc(-c2cnc(C)nc2CN(C)C(=O)c2cc(C3CC3)on2)on1` | 10.19 | -6.879 | -16.24 | 1.018 |
| 21 | `Cc1nc(C)c(COc2ccc(N(C)S(C)(=O)=O)cc2)s1` | 25.88 | 1.406 | 4.423 | 0.2216 |
| 22 | `CS(=O)(=O)NCc1cc(=O)n2c(n1)CN(Cc1ccco1)CCC2.O=C(O)C(F)(F)F` | 12.48 | - | -8.548 | - |
| 23 | `Cc1cc(C(=O)N2CCCC(n3cncn3)C2)on1` (centres undefined) | 3.662 | 6.189 | 6.311 | -0.5895 |
| 24 | `NS(=O)(=O)CCNC(=O)c1nnn(-c2ccc(F)cc2)c1C1CC1` | 12.42 | 3.244 | 12.83 | 12.1 |
| 25 | `CCS(=O)(=O)N1CCc2c(cccc2NC(=O)NCCO)C1` | 21.08 | 3.612 | 7.209 | 10.57 |
| 26 | `Cc1nc(COCc2cnc3n2CCN(C2CCC2)C3C)cs1.O=C(O)C(F)(F)F` (centres undefined) | 16.88 | - | -0.5342 | - |
| 27 | `CC(C)NCC1OCCc2cn(C)nc21.O=C(O)C(F)(F)F` (centres undefined) | 9.17 | - | 0.8368 | - |
| 28 | `COCCN1CCC12CCN(c1ncccn1)C2` (centres undefined) | - | -4.386 | - | -2.01 |
| 29 | `O=C(CN1CCOC(CNc2cccnn2)C1)N1CCCCC1` (centres undefined) | 22.25 | -22.52 | -19.23 | -0.332 |
| 30 | `Cc1nc(C)n(CC2CCCN2CCc2ccncc2)n1` (centres undefined) | 12.69 | -24.13 | 22.74 | -2.602 |
| 31 | `CC(=O)N1CC2C[C@]2(NC(=O)c2ccco2)C1` (some centres undefined) | -5.222 | 2.344 | -8.013 | -0.413 |
| 32 | `CCNC(=O)N(C)C1CCN(Cc2ncc(C)c(OC)c2C)CC1` | 32.91 | -10.87 | 1.92 | -0.2766 |
| 33 | `CN(C)C1CCCN(C(=O)NCCC(C)(C)C)C1` (centres undefined) | 23.5 | 12.97 | 6.12 | -1.888 |
| 34 | `CS(=O)(=O)N[C@@H]1COC[C@@H]2CN(Cc3ccoc3)C[C@@H]21` | - | -9.212 | - | 2.264 |
| 35 | `Cc1cnn(CC2CCCCN2c2nn3cc(C)nc3s2)c1` (centres undefined) | -17.41 | 18.25 | 10.45 | -2.546 |
| 36 | `CC(CNC(=O)N1CCS(=O)(=O)CC1)Cc1cccs1` (centres undefined) | -0.853 | 7.825 | -1.097 | -0.4125 |
| 37 | `CC(C)CNC(=O)N1C[C@H]2C[C@H](C(=O)NCc3ccccc3)[C@@H](C1)O2` | - | -2.207 | - | 9.108 |
| 38 | `CCS(=O)(=O)N1CCCn2cnc(COc3cccnc3)c2C1` | - | 1.773 | - | 6.866 |
| 39 | `Cn1ccnc1CNCCNc1ncc(Cl)cc1Cl` | -13.88 | -0.4459 | 5.852 | 2.393 |
| 40 | `COc1ccc(C2(NCc3c(C)nc4c(C)cccn34)CCCC2)cc1` | - | -20.83 | - | 4.061 |
| 41 | `Cc1noc(C2CCN(c3oc(C)nc3C#N)CC2)n1` | 12.98 | -22.47 | 11.88 | 0.7733 |
| 42 | `Cc1cc(C)n(CC2CCCN2C(=O)c2cccc3c2OCO3)n1` (centres undefined) | 21.63 | -23.89 | 8.996 | -0.412 |
| 43 | `COc1cc(N2C[C@@H]3COC[C@]3(C(=O)NC3CC(F)(F)C3)C2)ncn1` | - | 8.432 | - | -1.088 |
| 44 | `CS(=O)(=O)N1CCc2ccc(=O)n(CCN3CCCC3)c2CC1.O=C(O)C(F)(F)F` | 10.17 | - | 5.54 | - |
| 45 | `CN(CCO)Cc1nnc(C2CCN(C[C@H]3[C@@H]4CNC[C@@H]43)CC2)n1C` | - | 12.34 | - | 4.338 |
| 46 | `COc1c(CNC2CCOc3c(Cl)cccc32)c(C(C)C)nn1C` (centres undefined) | 13.07 | 9.68 | 50.26 | -0.7513 |
| 47 | `CN(C(=O)CN1CCC(NC(=O)c2cccs2)CC1)c1ccccc1` | 29.95 | -8.261 | -10.51 | 0.1058 |
| 48 | `Cl.Cl.O=C(NCc1cncc2c1CCN(Cc1ccc(F)cc1)C2)C1CC1` | 25.89 | - | -1.909 | - |
| 49 | `CC1N(C)C(=O)COC12CCN(C(=O)CCc1ccccc1)CC2` (centres undefined) | 16.74 | 7.546 | -3.614 | 7.914 |
| 50 | `O=C(N1CCCC1)N1CCC[C@]2(C[C@@H](Oc3ncccc3F)CO2)C1` | - | -6.291 | - | -1.499 |
| 51 | `C=C(C)Cn1ccc2cc(OC)c(F)cc2c1=O` | 3.048 | -9.999 | 0.12 | 30.72 |
| 52 | `O=C(O)C(F)(F)F.[H][C@@]12CCCO[C@]1([H])[C@@H](OCC(=O)N(C)C)CN2Cc1c(C)noc1C` | -4.32 | - | 8.483 | - |
| 53 | `O=C(Cn1ncc(N2CCCC2)cc1=O)Nc1ccc2nccnc2c1` | 25.58 | -8.363 | -10.95 | -1.57 |

Repeated from the top, 3 entries:

Cc1cc(Nc2ccc3c(c2)CC(=O)N3)nc(C(C)C)n1 read Leishmania in macrophages: 35.73%; ClpP1P2: -8.46%; Toxoplasma: -7.77%; PfKRS1: 7.712%.
CC(=O)N1CCNCC1c1cccc(C(=O)N(C)C)c1 (centres undefined) read Leishmania in macrophages: 3.746%; ClpP1P2: -7.965%; Toxoplasma: 3.395%; PfKRS1: 4.363%.
Cc1cccc(CN2CCOCC3(CCN(C4CCOCC4)C3)C2)n1 (centres undefined) read ClpP1P2: 2.816%; PfKRS1: 9.201%.

Measurements from “University of Dundee, Small-Polar-MMV Screening Library” (2021), ChEMBL document CHEMBL3988442.